Earlier results, collected in patent US9913836B2, “Anticholinergic neuroprotective composition and methods” (priority 2012, dated 2018).

Tested on: Tg2576 mouse model of AD
Settings: in vivo; cited from earlier work

With `COc1cc2c(cc1OC)C(=O)C(CC1CCN(Cc3ccccc3)CC1)C2` (racemic) [donepezil, (±)-2,3-dihydro-5,6-dimethoxy-2-[[1-(phenylmethyl)-4-piperidinyl]methyl]-1H-inden-1-one] as the compound, how does the “Brain tissue soluble A-beta 1-40 and 1-42, A-beta plaque number and burden” value read?
The value was “significantly reduced”.
